The list shows a part of the results. These are further read-outs of the screen, such as a control signal, another cell line or another target. No call is given for them.
How the values were obtained:
[1] = wild-type E. coli growth inhibition versus h38 humanized strain – h38 mutant RFP, wild-type GFP, cherry-pick, dose response (AID 977622); details: E. coli mixed culture, 24 h, total growth OD600 at 50 uM
[2] = tested on: E. coli h38 humanized mutant ribosome RFP fluorescence, mixed culture, 24 h; test: as above; details: h38 mutant RFP at 50 uM

Question: Which activity change [1] does the source give for O=C(NCCc1ccc(Cl)cc1)c1ccc2nc[nH]c2c1 here?
Answer: The activity change was -18.9%.

Question: What about the activity change [2] of the same compound?
Answer: The activity change was -7.05%.

Question: For C[C@H](CO)N1C[C@H](C)[C@@H](CN(C)C)OCCCC[C@H](C)Oc2ccc(NC(=O)Nc3cccc4ccccc34)cc2C1=O, which activity change [1] is on record?
Answer: The activity change was -5.25%.

Question: What about the activity change [2] of the same compound?
Answer: The activity change was -6.39%.

Question: What does the source list for COc1cc(C(=O)Nc2nnc(S(=O)(=O)N3CCCCCC3)s2)cc(OC)c1OC?
Answer: activity change [1]: -71%; activity change [2]: -5.65%

Question: For CC(=O)c1ccc(-c2cccc([C@H]3[C@@H]4C=CC[C@@H](C)[C@@H]4C(=O)N3Cc3ccccc3)c2)cc1, which activity change [1] is on record?
Answer: The activity change was 2.97%.

Question: And the activity change [2]?
Answer: Its activity change is 15.8%.

Question: What does the source list for Cc1nc(Sc2ccc(Cl)cc2)c(C#N)c(C)c1[N+](=O)[O-]?
Answer: activity change [1]: -52.5%; activity change [2]: 4.59%

Question: For CN(C)S(=O)(=O)c1cccc(C(=O)Nc2ccc3c(c2)CCC3)c1, which activity change [1] is on record?
Answer: The activity change was -25.3%.

Question: Which results are given for Cc1cc(NC(=O)c2sc(Nc3ccc(F)c(Cl)c3)nc2N)no1?
Answer: activity change [1]: -19.1%; activity change [2]: 209%

Question: With O=C1OCCC1Sc1nc2ccccc2c(=O)n1Cc1ccccc1 (centres undefined) as the compound, how does the activity change [1] read?
Answer: Its activity change is -39.4%.

Question: And the activity change [2]?
Answer: The activity change was -14.9%.

Question: Which results are given for Cc1ccc(OCc2nc(C#N)c(N3CCCCC3)o2)cc1?
Answer: activity change [1]: -59.1%; activity change [2]: 36.5%

Question: Which activity change [1] does the source give for Cc1ccc(NC(=O)c2ccc([N+](=O)[O-])o2)cc1S(=O)(=O)N1CCOCC1 here?
Answer: Its activity change is -21.5%.

Question: And the activity change [2]?
Answer: Its activity change is -35.5%.

Question: With O=C(Nc1ccc(Cl)cc1)N1C[C@@H]2[C@H](c3ccccc31)[C@H](CO)N2C(=O)c1ccccn1 as the compound, how does the activity change [1] read?
Answer: Its activity change is -91.2%.

Question: What about the activity change [2] of the same compound?
Answer: Its activity change is -53.9%.

Question: Which results are given for CCN(CC)CCCN(C(=O)c1ccco1)c1nc(-c2ccc(C)cc2)cs1?
Answer: activity change [1]: -31.4%; activity change [2]: 23%

Question: For Nc1nc(NCc2ccco2)nc(N2CCN(Cc3ccccc3)CC2)c1[N+](=O)[O-], which activity change [1] is on record?
Answer: Its activity change is -62.5%.

Question: And the activity change [2]?
Answer: Its activity change is -1.87%.

Question: With CCN(CC)S(=O)(=O)c1cccc(NC(=O)CNc2cccc(S(=O)(=O)N3CCCC3)c2)c1 as the compound, how does the activity change [1] read?
Answer: The activity change was -5.45%.

Question: And the activity change [2]?
Answer: Its activity change is -6.07%.

Question: Which activity change [1] does the source give for COc1ccc(C(=O)Nc2ccc(Nc3ccccc3)cc2)cc1[N+](=O)[O-] here?
Answer: The activity change was -27%.

Question: And the activity change [2]?
Answer: Its activity change is -31.7%.

Question: Which results are given for O=C(Nc1ccccc1F)N1CCCCN2[C@@H](CO)[C@H](c3ccc(C#Cc4cccnc4)cc3)[C@@H]2C1?
Answer: activity change [1]: -6.31%; activity change [2]: 9.92%

Question: Which activity change [1] does the source give for CCOC(=O)c1c(C)nsc1NCc1ccccc1 here?
Answer: Its activity change is -24.1%.

Question: With Cc1c(NC(=O)c2ccc([N+](=O)[O-])o2)cccc1-c1nc2ncccc2o1 as the compound, how does the activity change [1] read?
Answer: The activity change was -11.2%.

Question: What about the activity change [2] of the same compound?
Answer: Its activity change is -34.3%.

Question: What does the source list for O=C(c1ccccc1)c1ccc2nc(-c3ccc(NC(=O)c4ccccc4Br)cc3)[nH]c2c1?
Answer: activity change [1]: -3.03%; activity change [2]: -23.6%

Question: With CCOc1ccccc1N1CC(C(=O)Nc2cccc(S(=O)(=O)N3CCCCC3)c2)CC1=O (centres undefined) as the compound, how does the activity change [1] read?
Answer: Its activity change is -18%.

Question: And the activity change [2]?
Answer: The activity change was 0.695%.

Question: Which activity change [1] does the source give for CCCC#C/C(CCC)=C1\c2ccccc2C(=O)N1c1ccccc1 here?
Answer: Its activity change is 2.23%.

Question: What about the activity change [2] of the same compound?
Answer: Its activity change is 44.6%.

Question: Which activity change [2] does the source give for COc1cccc(NC(=O)c2ccc(NCCCN3CC(C)CC(C)C3)c([N+](=O)[O-])c2)c1 (centres undefined) here?
Answer: The activity change was -0.387%.

Question: With CC(=O)Oc1c(Cl)cc(N(C(C)=O)S(=O)(=O)c2ccccc2)c2ccccc12 as the compound, how does the activity change [1] read?
Answer: The activity change was -51%.

Question: What about the activity change [2] of the same compound?
Answer: Its activity change is 27.4%.

Question: For O=S(=O)(c1ccc(Cl)cc1)N1CCN=C1SCc1cccc(Cl)c1, which activity change [1] is on record?
Answer: The activity change was -6.7%.

Question: And the activity change [2]?
Answer: Its activity change is 52.5%.

Question: Which results are given for Cc1ccc(S(=O)(=O)NCc2c(-c3ccccc3)noc2C)cc1?
Answer: activity change [1]: -38.3%; activity change [2]: 9.6%

Question: For COc1cccc(NC(=O)C(C)SCc2ccccc2)c1 (centres undefined), which activity change [1] is on record?
Answer: Its activity change is -3.38%.

Question: What about the activity change [2] of the same compound?
Answer: Its activity change is -0.103%.

Question: For COc1ccc(CNC(=O)c2cc3c(s2)CN(Cc2ccccc2)C3)cc1, which activity change [1] is on record?
Answer: Its activity change is -48.3%.

Question: And the activity change [2]?
Answer: Its activity change is 3.16%.

Question: Which activity change [1] does the source give for Nc1nc(Nc2ccccc2)nc(NCc2ccccc2)c1[N+](=O)[O-] here?
Answer: Its activity change is -35.9%.

Question: And the activity change [2]?
Answer: The activity change was -27.8%.

Question: Which results are given for Cc1cc(C)c(OCCN(C)Cc2ccccc2)c(Br)c1?
Answer: activity change [1]: -6.5%; activity change [2]: 3.73%

Question: For C[C@H](CO)N1C[C@H](C)[C@@H](CN(C)Cc2ccncc2)OCc2ccccc2-c2c(n(C)c3ccccc23)C1=O, which activity change [1] is on record?
Answer: Its activity change is -76%.

Question: And the activity change [2]?
Answer: The activity change was -3.44%.

Question: What does the source list for O=S(=O)(c1ccccc1)N1CC[C@@H]2[C@H](CO)Nc3ccc(Br)cc3[C@@H]21?
Answer: activity change [1]: -56.1%; activity change [2]: -22.7%

Question: With CCOc1ccccc1C(=O)OCC(=O)NCCc1ccc(OC)cc1 as the compound, how does the activity change [1] read?
Answer: Its activity change is -47.8%.

Question: What about the activity change [2] of the same compound?
Answer: The activity change was 3.21%.

Question: Which activity change [1] does the source give for O=C1c2ccccc2C(c2nnnn2Cc2ccccc2)N1CCc1ccc(O)cc1 (centres undefined) here?
Answer: The activity change was -41%.

Question: And the activity change [2]?
Answer: The activity change was -33.1%.

Question: Which activity change [1] does the source give for O=C(O)C1(Nc2ccc([N+](=O)[O-])cc2[N+](=O)[O-])CCCC1 here?
Answer: The activity change was -14.3%.

Question: And the activity change [2]?
Answer: The activity change was -49.7%.

Question: Which activity change [1] does the source give for CCOc1cccc(-c2cc(-c3n[nH]c(=S)n3CC)c3ccccc3n2)c1 here?
Answer: Its activity change is -16.5%.

Question: What about the activity change [2] of the same compound?
Answer: The activity change was 8.04%.

Question: For CC(C)N1CC2(CC(c3ccccc3C(F)(F)F)=NO2)CN1C(=O)c1ccco1 (centres undefined), which activity change [1] is on record?
Answer: The activity change was -21.9%.

Question: And the activity change [2]?
Answer: Its activity change is 58.1%.

Question: Which activity change [1] does the source give for O=C(O)C1CCCCC1C(=O)Nc1ccc(OCc2ccccc2)cc1 (centres undefined) here?
Answer: The activity change was -42.2%.

Question: What about the activity change [2] of the same compound?
Answer: The activity change was 2.03%.

Question: With O=C(Nc1cc(F)ccc1F)N1CCCCN2[C@@H](CO)[C@H](c3ccc(-c4ccncc4)cc3)[C@@H]2C1 as the compound, how does the activity change [1] read?
Answer: The activity change was 0.557%.

Question: And the activity change [2]?
Answer: Its activity change is 6.29%.

Question: For CC1Cc2ccccc2N1C(=O)c1ccc(N2CCCCC2)c([N+](=O)[O-])c1 (centres undefined), which activity change [1] is on record?
Answer: The activity change was -50.1%.

Question: And the activity change [2]?
Answer: The activity change was -8.2%.

Question: Which results are given for Cc1cc(Br)c2nc(-c3ccc(Cl)cc3)c(Cc3cccc(Cl)c3)n2c1?
Answer: activity change [1]: -6.91%; activity change [2]: 21.5%

Question: Which activity change [1] does the source give for O=C(CCNC(=O)c1ccccc1)Nc1ccc(Cl)c(S(=O)(=O)N2CCCCC2)c1 here?
Answer: The activity change was -49%.

Question: What about the activity change [2] of the same compound?
Answer: Its activity change is -27.7%.

Question: Which results are given for CCN(CC)CCN(C(=O)c1ccccc1OC)c1nc2ccc(F)cc2s1?
Answer: activity change [1]: -26.1%; activity change [2]: 1.33%

Question: Which activity change [1] does the source give for Fc1ccc(-c2nc3ccc(Cl)cn3c2Cc2cccc(Cl)c2)cc1 here?
Answer: The activity change was -37.3%.

Question: For CCN(CC)CCN(C(=O)c1ccc2c(c1)OCCO2)c1nc2c(Cl)cccc2s1, which activity change [1] is on record?
Answer: The activity change was -37.6%.

Question: And the activity change [2]?
Answer: Its activity change is -10.8%.

Question: With CCCC(=O)Nc1cccc(C(=O)Nc2ccccc2OCC)c1 as the compound, how does the activity change [1] read?
Answer: Its activity change is -14.8%.

Question: And the activity change [2]?
Answer: The activity change was -18%.

Question: Which activity change [1] does the source give for O=C(Nc1ccccc1N1CCOCC1)C1CCCCN1S(=O)(=O)c1ccccc1 (centres undefined) here?
Answer: Its activity change is -24.4%.

Question: For Clc1ccc(-c2nc(NCCCN3CCOCC3)c3ccccc3n2)cc1, which activity change [1] is on record?
Answer: Its activity change is -38.1%.

Question: What about the activity change [2] of the same compound?
Answer: The activity change was -5.75%.

Question: Which activity change [1] does the source give for CNC(=O)c1ccsc1NC(=O)c1ccc2c(c1)CCCC2 here?
Answer: Its activity change is -20.7%.

Question: And the activity change [2]?
Answer: The activity change was -4.25%.

Question: What does the source list for O=C(NCc1ccc(S(=O)(=O)Nc2ccccc2Cl)s1)c1ccccc1?
Answer: activity change [1]: -25%; activity change [2]: -32.8%

Question: Which results are given for O=C(NCc1nnnn1-c1ccc(Cl)cc1)c1ccc([N+](=O)[O-])o1?
Answer: activity change [1]: -41.8%; activity change [2]: -13.4%

Question: For CN(C(=O)c1ccc(F)cc1)c1ccc(OCC(=O)Nc2ccccc2C(=O)O)cc1, which activity change [1] is on record?
Answer: The activity change was -15.9%.

Question: What about the activity change [2] of the same compound?
Answer: Its activity change is -8.64%.

Question: For COc1ccc(CC(=O)Nc2cc(S(=O)(=O)Nc3ccc(OC)cc3)ccc2OC)cc1, which activity change [1] is on record?
Answer: The activity change was -12%.

Question: What about the activity change [2] of the same compound?
Answer: Its activity change is -9.85%.

Question: What does the source list for COc1ccc(Cl)cc1NC(=O)CN(C)CC(=O)Nc1ccccc1-c1ccccc1?
Answer: activity change [1]: -38.7%; activity change [2]: 3.44%

Question: With CS(=O)(=O)c1cccc(C(=O)Nc2cccc(-c3nc4ccccc4[nH]3)c2)c1 as the compound, how does the activity change [1] read?
Answer: The activity change was -47.2%.

Question: And the activity change [2]?
Answer: The activity change was 27.4%.

Question: Which activity change [1] does the source give for O=C(NC1CCCC1)c1ccc([N+](=O)[O-])s1 here?
Answer: The activity change was -21%.
